Test results published in patent US20230391826A1, “COMPOSITIONS AND METHODS FOR TREATING DISEASES” (Sanford Burnham Prebys Medical Discovery Institute, priority 2020, published 2023).
Results are given in words; binding and its absence hold for the method and conditions named. Binding calls can cover weak binding; strength is not graded here. Values belong to the binder of their own block, whether it stands above or below them.

Sequences of proteins named here, by UniProt entry; tags and fusion partners are left off. A change or cut given only in a name is not applied to a line headed by its entry.
UniProt P29317: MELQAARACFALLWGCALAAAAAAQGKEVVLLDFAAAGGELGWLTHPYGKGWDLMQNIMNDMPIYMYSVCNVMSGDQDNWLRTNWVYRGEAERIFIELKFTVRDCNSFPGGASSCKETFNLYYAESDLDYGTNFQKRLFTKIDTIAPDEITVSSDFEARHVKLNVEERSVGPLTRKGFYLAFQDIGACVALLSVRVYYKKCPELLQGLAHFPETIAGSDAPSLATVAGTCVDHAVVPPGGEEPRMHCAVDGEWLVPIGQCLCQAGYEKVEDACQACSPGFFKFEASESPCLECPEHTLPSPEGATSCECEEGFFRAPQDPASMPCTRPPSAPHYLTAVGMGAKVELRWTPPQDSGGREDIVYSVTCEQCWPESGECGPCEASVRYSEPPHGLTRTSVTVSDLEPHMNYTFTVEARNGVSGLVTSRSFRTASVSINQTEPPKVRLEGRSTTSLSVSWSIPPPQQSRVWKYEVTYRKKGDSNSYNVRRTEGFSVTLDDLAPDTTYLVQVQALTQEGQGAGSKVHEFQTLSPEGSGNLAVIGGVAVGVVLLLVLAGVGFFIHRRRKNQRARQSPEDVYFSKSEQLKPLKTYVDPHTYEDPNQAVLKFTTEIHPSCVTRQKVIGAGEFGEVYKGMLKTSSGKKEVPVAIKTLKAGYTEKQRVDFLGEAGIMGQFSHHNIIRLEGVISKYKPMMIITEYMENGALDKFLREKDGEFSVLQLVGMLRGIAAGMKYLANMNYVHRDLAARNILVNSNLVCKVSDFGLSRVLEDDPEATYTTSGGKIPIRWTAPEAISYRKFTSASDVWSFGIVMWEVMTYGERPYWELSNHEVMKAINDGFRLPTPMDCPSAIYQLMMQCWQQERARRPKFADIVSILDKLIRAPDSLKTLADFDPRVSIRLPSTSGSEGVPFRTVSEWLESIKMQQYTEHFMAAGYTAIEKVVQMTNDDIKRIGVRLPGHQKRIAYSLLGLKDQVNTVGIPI

Biological target: EphA2 ligand binding domain (EphA2 LBD), residues 28-200 (UniProt P29317)
Test: ITC, soluble EphA2 LBD and peptide

binding: binds
B1: βA-WLA-YGSGC dimer (C-ter) (peptide)
peptide: AWLAYPDSVPYGSGC
modifications: βAla (βA) at position 1; C-terminal Cys of the two chains joined by a disulfide

binding: binds
B2: CGA-WLA-YR dimer (N-ter) (peptide)
peptide: CGAWLAYPDSVPYR
modifications: N-terminal Cys of the two chains joined by a disulfide

binding: binds
B3: βA-WLA-YRPKC dimer (C-ter) (peptide)
peptide: AWLAYPDSVPYRPKC
modifications: βAla (βA) at position 1; C-terminal Cys of the two chains joined by a disulfide
